This is one part of the list. Further columns of the screen follow, without active or inactive calls. Compounds called inactive in the main read-out are mostly missing here. Potencies come from curve fits of mixed quality, noted in brackets.
Experiment: Cell signaling CRE-BLA (Fsk stim)
Details: CHO CRE-bla reporter (cAMP response element driving beta-lactamase), forskolin EC10, beta-lactamase ratio; measured here: 460 nm blue channel
Procedure, shortened: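 Beta-lactamase reporter under a cAMP responsive element in CHO cells; compounds tested in titration series against EC10 NKH 477, 3 h at 37 °C. Read-out: CCF4 FRET ratio 460nm/530nm (excitation 405nm) giving %Activity, fitted to AC50.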
With `CCCCC[C@H](O)/C=C\[C@@H]1[C@H](O)CC(=O)[C@@H]1CCCCCCC(=O)O` the AC50 was 0.00126 µM [rising, full curve, poor fit]. With `O=C(NCc1cccs1)Nc1cccs1` the AC50 was 0.00316 µM [falling, full curve, poor fit]. In the case of `Cc1ccc(-c2noc(CCC(=O)NCCCN3CCN(c4cccc(Cl)c4)CC3)n2)cc1`, the AC50 is reported as 12.6 µM [falling, partial curve]. For `COc1ccc(NC(=O)c2cc(=O)c3ccccc3o2)cn1`, the AC50 was 3.16 µM [rising, partial curve]. In the case of `CC(=O)N1CCN(c2nc3cc4c(cc3nc2NS(=O)(=O)c2ccccc2)OCCO4)CC1`, the AC50 is reported as 10 µM [rising, partial curve]. For `COc1nc(N(C)C)nc(-n2nnc(C(C)=O)c2C)n1`, the AC50 was 12.6 µM [rising, partial curve]. In the case of `COc1cc(N)c(Cl)cc1C(=O)N[C@H]1CCN(CCCOc2ccc(F)cc2)C[C@@H]1OC`, the AC50 is reported as 0.01 µM [rising, full curve, poor fit]. With `COc1ccc(OC)c(Nc2nc(N)nc(-c3cc4ccccc4o3)n2)c1` the AC50 was 10 µM [rising, partial curve]. For `CC1CCN(S(=O)(=O)c2ccc3c(c2)oc(=O)n3CC(=O)NCc2ccc3c(c2)OCO3)CC1`, the AC50 was 10 µM [falling, partial curve]. With `CCc1nc2c(c(=O)[nH]1)C1(CCCC1)Cc1ccccc1-2` the AC50 was 12.6 µM [rising, partial curve]. For `O=C(/C=N/O)Nc1ccccc1`, the AC50 was 3.98 µM [falling, single point]. With `O=C(CSc1nc(-c2ccccc2Cl)ns1)NCc1ccco1` the AC50 was 0.00794 µM [falling, full curve]. With `O=C(c1ccc(CSCc2ccccc2F)o1)N1CCN(c2ccc(N3CCOCC3)nn2)CC1` the AC50 was 2 µM [rising, partial curve]. In the case of `CCc1ccc(-c2nc(CN3CCC(C(=O)NCCc4ccc(OC)c(OC)c4)CC3)c(C)o2)cc1`, the AC50 is reported as 2.51 µM [falling, full curve]. With `CCc1nc2ccccc2n1Cc1ccc(OC)c(OC)c1` the AC50 was 12.6 µM [rising, partial curve]. For `CC(C)NC(=O)N1CC[C@@]2(CCCN(S(=O)(=O)c3ccccc3)C2)C1`, the AC50 was 0.00316 µM [rising, full curve, poor fit]. In the case of `CCCn1nc(CC(=O)O)c2ccccc2c1=O`, the AC50 is reported as 5.01 µM [falling, single point]. In the case of `COC(=O)c1ccc(COc2ncnc3c(Cl)cc(Cl)cc23)o1`, the AC50 is reported as 6.31 µM [rising, partial curve]. For `Cc1ccc(S(=O)(=O)/N=C(\CN2CCCCC2)N2CCOCC2)cc1`, the AC50 was 0.251 µM [rising, partial curve, poor fit]. For `COc1ccc(C(=O)NC(C)c2nc3ccccc3[nH]2)cc1OC` (stereo not drawn), the AC50 was 10 µM [rising, partial curve]. With `Cc1cccc(C)c1NC(=O)Cn1c(=O)n(CCCC(=O)NCc2ccco2)c(=O)c2sccc21` the AC50 was 0.0251 µM [falling, full curve, poor fit]. In the case of `COc1cc2c(cc1NC(=O)c1ccc3c(c1)OCO3)oc1ccccc12`, the AC50 is reported as 5.01 µM [falling, partial curve]. For `O=C(CN(Cc1ccc2c(c1)OCO2)C(=O)CNS(=O)(=O)c1ccccc1)NCC1CCCO1` (stereo not drawn), the AC50 was 0.00316 µM [falling, full curve]. In the case of `Cc1ccc(S(=O)(=O)c2cc3c(=O)n4cccc(C)c4nc3n(Cc3ccco3)c2=N)cc1C`, the AC50 is reported as 10 µM [rising, partial curve]. For `O=C1CCCN1CCCN1C(=O)N[C@@H](Cc2ccccc2)C1=O`, the AC50 was 0.00316 µM [falling, full curve, poor fit]. For `CN(C)c1ncc2ncc(=O)n(Cc3cccs3)c2n1`, the AC50 was 10 µM [rising, partial curve]. With `COc1cccc(-n2c(COc3ccc(C)cc3)nnc2SCC(=O)O)c1` the AC50 was 12.6 µM [falling, partial curve]. In the case of `CCOC(=O)N1CCN(C(=O)c2cccn3c(=O)c4sccc4nc23)CC1`, the AC50 is reported as 12.6 µM [rising, single point]. With `CCN1C(=O)CSC1=NC1C2CC3CC(C2)CC1C3` (stereo not drawn) the AC50 was 12.6 µM [rising, single point]. In the case of `O=C(NCCc1ccccc1)C(c1cccs1)N(C(=O)c1csnn1)C1CC1` (stereo not drawn), the AC50 is reported as 1.26 µM [falling, partial curve]. With `Cc1cc(C(=O)OCC(=O)c2ccc3c(c2)OCCO3)c(C)o1` the AC50 was 0.158 µM [falling, full curve, poor fit]. With `O=C(NCCc1ccccc1)C1c2ccccc2C(=O)N1C1CC1` (stereo not drawn) the AC50 was 25.1 µM [falling, partial curve]. For `CCOCCCn1c(=N)c(C(=O)Nc2cc(C)on2)cc2c(=O)n3ccccc3nc21`, the AC50 was 1.58 µM [rising, full curve]. For `COc1cccc(Cn2c(=O)c(-c3cccs3)nc3cnc(Nc4cccc(OC)c4)nc32)c1`, the AC50 was 2.51 µM [rising, full curve]. With `COc1ccc(CCNC(=O)c2cc3c(=O)n4cccc(C)c4nc3n(Cc3ccncc3)c2=N)cc1` the AC50 was 10 µM [rising, partial curve]. With `O=C(c1ccc(S(=O)(=O)N2CCOCC2)cc1)N1CCc2ccccc2C1` the AC50 was 2.51 µM [falling, single point]. For `CCOC(=O)N1CCN(C(=O)CCCn2nc(C)c3sc4ccccc4c3c2=O)CC1`, the AC50 was 10 µM [rising, partial curve]. With `Cc1ccccc1-c1nccc(NCc2cccnc2)n1` the AC50 was 0.398 µM [rising, full curve, poor fit]. In the case of `COc1ccc(OC)c(Nc2ncnc3c2cnn3-c2ccccc2)c1`, the AC50 is reported as 12.6 µM [rising, single point]. For `CCOc1cc(Br)c(C(=O)O)cc1OCC`, the AC50 was 10 µM [falling, partial curve]. With `CCCOc1ccccc1-c1nc2c([nH]1)c(=O)[nH]c(=O)n2C` the AC50 was 12.6 µM [rising, partial curve]. For `Cc1[nH]c(=O)[nH]c(=O)c1NS(=O)(=O)c1ccc2c(c1)CCCC2`, the AC50 was 25.1 µM [rising, single point]. With `c1cncc(-c2cccnc2)c1` the AC50 was 31.6 µM [falling, single point]. With `Oc1[nH]c2ccccc2c1/C=N/c1nccs1` the AC50 was 0.631 µM [falling, full curve]. With `COCCNC(=O)c1cc2c(=O)n3cccc(C)c3nc2n1C` the AC50 was 1.26 µM [rising, partial curve]. With `Cc1ccc(C)c(Nc2ncnc3nc[nH]c23)c1` the AC50 was 12.6 µM [rising, partial curve]. In the case of `CCSc1nc2c(c(=O)[nH]c(=O)n2C)n1C`, the AC50 is reported as 20 µM [rising, single point]. In the case of `Cc1cccc(N2C(N)=C(C#N)C(C#N)(C#N)C2c2ccccc2)c1` (stereo not drawn), the AC50 is reported as 10 µM [rising, partial curve]. With `O=C(Nc1ccc(Cl)cc1)N(Cc1cccs1)Cc1cccs1` the AC50 was 25.1 µM [falling, single point]. With `Cc1cc(Cl)cc(C)c1OCC(=O)O` the AC50 was 3.98 µM [falling, partial curve]. With `COc1ccc(NC(=O)CN2CCC(n3c(C)nc4cc(F)ccc43)CC2)c(OC)c1` the AC50 was 7.94 µM [rising, partial curve]. In the case of `COC(=O)C1=C(Cn2cnc3ccccc32)NC(=O)NC1c1cc(C)ccc1C` (stereo not drawn), the AC50 is reported as 12.6 µM [falling, single point]. For `CCCCn1c(Oc2ccc(C(=O)OC)cc2)nc2c1c(=O)n(C)c(=O)n2C`, the AC50 was 0.2 µM [falling, full curve]. For `CCOC(=O)C(CC)Sc1nc2c(c(=O)[nH]c(=O)n2C)n1C/C=C(/C)Cl` (stereo not drawn), the AC50 was 20 µM [rising, single point]. With `O=C(c1n[nH]c2ccccc12)N1CCN(S(=O)(=O)c2ccc3ccccc3c2)CC1` the AC50 was 10 µM [falling, single point]. With `CCOC(=O)c1oc2ccccc2c1NC(=O)COC` the AC50 was 10 µM [rising, partial curve]. In the case of `CC(C)OCC(O)CSc1ccccn1` (stereo not drawn), the AC50 is reported as 5.01 µM [falling, partial curve]. In the case of `Cc1ccc(N2CCN(c3ccc(C)cc3)C(CC(=O)O)C2=O)cc1` (stereo not drawn), the AC50 is reported as 12.6 µM [rising, partial curve]. For `COc1ccc(OC)c(S(=O)(=O)Nc2cccc(C(C)=O)c2)c1`, the AC50 was 3.16 µM [rising, single point]. With `CCOC(=O)C1=C(C)OC(N)=C(C(=O)OCC)C1c1cccnc1` (stereo not drawn) the AC50 was 12.6 µM [rising, single point]. In the case of `COC(=O)C1=C(C)NC2=C(C(=O)CCC2)C1c1cccc(C)n1` (stereo not drawn), the AC50 is reported as 12.6 µM [rising, partial curve]. In the case of `Cc1ccc(/C=N/n2c(C)nnc2C)s1`, the AC50 is reported as 0.2 µM [falling, full curve, poor fit]. In the case of `COC(=O)N1CCC2(CCCN(C(c3ccccc3)c3ccccc3)C2)CC1`, the AC50 is reported as 15.8 µM [rising, partial curve]. For `CC(=O)NCCNc1ncnc2ccc(-c3ccc4c(c3)OCO4)cc12`, the AC50 was 12.6 µM [rising, partial curve]. In the case of `CC(=O)c1cccc(NC(=O)c2c(F)c(F)c(F)c(F)c2F)c1`, the AC50 is reported as 0.01 µM [rising, full curve]. For `CC1(C)Cc2c(c(N3CCOCC3)nc3sc(-c4ccc(C(=O)O)o4)c(N)c23)CO1`, the AC50 was 12.6 µM [rising, partial curve]. In the case of `COc1cc2c(cc1OC)C(=O)N(C)CC2`, the AC50 is reported as 7.94 µM [rising, partial curve]. In the case of `Cc1ccc(C)c(Cn2cnc3c(cnn3C(C)(C)C)c2=O)c1`, the AC50 is reported as 25.1 µM [rising, single point].
